## Results of single-concentration screens

The chains behind the UniProt entries cited, without tags or fusion partners. Residues count along the entry.
UniProt P9WNZ1, whole entry: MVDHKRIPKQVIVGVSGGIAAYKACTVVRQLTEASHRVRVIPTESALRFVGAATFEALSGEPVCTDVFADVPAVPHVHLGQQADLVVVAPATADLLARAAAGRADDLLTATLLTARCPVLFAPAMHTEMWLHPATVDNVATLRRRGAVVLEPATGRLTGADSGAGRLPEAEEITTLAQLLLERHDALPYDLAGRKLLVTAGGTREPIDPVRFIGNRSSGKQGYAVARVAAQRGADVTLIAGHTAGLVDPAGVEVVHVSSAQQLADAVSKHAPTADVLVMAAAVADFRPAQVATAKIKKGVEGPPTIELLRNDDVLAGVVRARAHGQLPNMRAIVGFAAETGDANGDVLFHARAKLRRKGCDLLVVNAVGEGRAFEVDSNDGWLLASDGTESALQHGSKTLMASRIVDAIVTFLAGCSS
UniProt Q8IDJ8, 1-583: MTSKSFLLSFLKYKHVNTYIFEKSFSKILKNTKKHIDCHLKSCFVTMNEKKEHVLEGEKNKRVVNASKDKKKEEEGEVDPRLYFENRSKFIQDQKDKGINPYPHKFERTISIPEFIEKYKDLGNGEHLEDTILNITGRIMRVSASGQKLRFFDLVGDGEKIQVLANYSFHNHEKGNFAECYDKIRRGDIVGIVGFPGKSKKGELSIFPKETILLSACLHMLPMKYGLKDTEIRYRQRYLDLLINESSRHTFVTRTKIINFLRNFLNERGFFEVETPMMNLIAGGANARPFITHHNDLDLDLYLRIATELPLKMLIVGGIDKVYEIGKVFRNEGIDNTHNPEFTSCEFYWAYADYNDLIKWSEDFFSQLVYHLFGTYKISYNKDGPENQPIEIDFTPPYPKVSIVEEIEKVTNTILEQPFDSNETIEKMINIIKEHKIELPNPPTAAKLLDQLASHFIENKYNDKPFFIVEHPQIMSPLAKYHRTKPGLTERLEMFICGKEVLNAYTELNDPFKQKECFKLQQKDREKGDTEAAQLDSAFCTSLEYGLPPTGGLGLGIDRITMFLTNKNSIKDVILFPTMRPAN
UniProt P9WFT3, whole entry: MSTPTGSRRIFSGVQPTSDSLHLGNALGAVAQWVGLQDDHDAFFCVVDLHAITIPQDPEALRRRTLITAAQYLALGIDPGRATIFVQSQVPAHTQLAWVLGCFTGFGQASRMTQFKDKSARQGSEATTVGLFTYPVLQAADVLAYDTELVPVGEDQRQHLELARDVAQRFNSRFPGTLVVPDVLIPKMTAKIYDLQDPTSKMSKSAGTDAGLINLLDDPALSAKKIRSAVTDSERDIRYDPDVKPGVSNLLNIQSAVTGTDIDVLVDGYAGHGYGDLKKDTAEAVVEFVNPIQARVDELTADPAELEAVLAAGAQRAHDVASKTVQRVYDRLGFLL
UniProt I6X8D2, whole entry: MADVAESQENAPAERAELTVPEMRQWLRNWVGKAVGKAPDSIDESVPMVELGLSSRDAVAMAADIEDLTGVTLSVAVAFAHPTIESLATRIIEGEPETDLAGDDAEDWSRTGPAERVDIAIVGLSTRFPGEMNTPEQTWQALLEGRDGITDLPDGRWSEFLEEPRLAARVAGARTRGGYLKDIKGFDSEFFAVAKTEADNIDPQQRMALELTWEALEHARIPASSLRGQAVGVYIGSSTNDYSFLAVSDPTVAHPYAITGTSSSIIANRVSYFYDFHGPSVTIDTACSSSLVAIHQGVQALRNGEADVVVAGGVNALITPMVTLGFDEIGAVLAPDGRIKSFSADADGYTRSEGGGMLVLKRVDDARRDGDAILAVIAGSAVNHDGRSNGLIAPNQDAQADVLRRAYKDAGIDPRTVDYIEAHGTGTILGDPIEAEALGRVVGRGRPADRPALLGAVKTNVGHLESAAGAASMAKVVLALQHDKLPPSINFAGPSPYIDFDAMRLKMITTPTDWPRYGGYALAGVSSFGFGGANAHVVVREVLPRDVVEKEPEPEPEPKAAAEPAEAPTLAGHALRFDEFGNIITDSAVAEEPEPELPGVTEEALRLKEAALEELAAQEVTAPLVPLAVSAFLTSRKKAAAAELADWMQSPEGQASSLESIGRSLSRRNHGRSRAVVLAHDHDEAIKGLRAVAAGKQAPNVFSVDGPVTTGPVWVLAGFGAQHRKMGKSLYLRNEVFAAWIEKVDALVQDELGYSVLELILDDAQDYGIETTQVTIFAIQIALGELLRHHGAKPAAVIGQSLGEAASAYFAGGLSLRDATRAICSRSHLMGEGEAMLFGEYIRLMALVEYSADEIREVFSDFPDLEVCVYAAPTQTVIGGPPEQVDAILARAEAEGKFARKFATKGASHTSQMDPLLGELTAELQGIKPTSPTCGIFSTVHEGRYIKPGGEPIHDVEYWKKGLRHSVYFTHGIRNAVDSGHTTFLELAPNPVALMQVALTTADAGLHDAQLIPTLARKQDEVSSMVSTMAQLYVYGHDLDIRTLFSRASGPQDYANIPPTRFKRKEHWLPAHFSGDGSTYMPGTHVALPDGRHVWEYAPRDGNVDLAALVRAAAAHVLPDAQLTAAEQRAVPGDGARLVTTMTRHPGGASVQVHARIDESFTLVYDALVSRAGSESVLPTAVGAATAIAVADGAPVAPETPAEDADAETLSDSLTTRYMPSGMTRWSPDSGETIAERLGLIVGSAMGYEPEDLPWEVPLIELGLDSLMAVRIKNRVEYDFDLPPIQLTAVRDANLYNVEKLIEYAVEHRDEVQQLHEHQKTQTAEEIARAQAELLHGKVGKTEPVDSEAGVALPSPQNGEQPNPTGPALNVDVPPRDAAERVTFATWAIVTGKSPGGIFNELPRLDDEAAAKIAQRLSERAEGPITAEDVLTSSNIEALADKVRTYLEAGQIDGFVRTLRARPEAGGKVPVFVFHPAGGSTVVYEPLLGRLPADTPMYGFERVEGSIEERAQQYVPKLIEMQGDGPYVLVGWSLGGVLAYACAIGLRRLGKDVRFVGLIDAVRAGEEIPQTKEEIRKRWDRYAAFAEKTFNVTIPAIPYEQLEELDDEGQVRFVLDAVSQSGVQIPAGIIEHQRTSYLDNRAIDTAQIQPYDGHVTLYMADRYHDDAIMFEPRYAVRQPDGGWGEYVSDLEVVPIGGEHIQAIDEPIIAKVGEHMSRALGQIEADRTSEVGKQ

Source: ChEMBL document CHEMBL3988442, “University of Dundee, Small-Polar-MMV Screening Library” (2021).

Results are given as percent effect. The controls that fix the scale are not given in the record; negative values are as filed. This is an unselected part of the compounds tested.

CoaBC: 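Enzyme assay of CoaBC with a phosphate dye (Biomol Green) read at 650 nm. Target: Coenzyme A biosynthesis protein CoaBC, Mycobacterium tuberculosis (UniProt P9WNZ1). Concentration: 30 µM. Direction is inferred from only a few compounds that gave an IC50; most scored high, so higher reads as stronger inhibition. Most strong results did not repeat in a second test. About 67,000 compounds were tested under these conditions; 0.06% (about 40) showed 50% or more at least once.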
PfKRS1: 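Enzyme assay of the cytosolic lysyl-tRNA synthetase in 384-well plates, read by luminescence. Target: Lysine-tRNA ligase, Plasmodium falciparum 3D7 (UniProt Q8IDJ8). Compounds at 30 µM. Direction is inferred from only a few compounds that gave an IC50; most scored high, so higher reads as stronger inhibition. Size under these conditions: about 69,000 compounds, about 49 of them at 50% or above in at least one test.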
Toxoplasma: 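Assay of Toxoplasma gondii numbers, read through their beta-galactosidase reporter with a colour substrate. Tested at 10 µM. Higher reads as fewer parasites (inferred from which compounds were picked for retests). Size under these conditions: about 67,000 compounds, about 260 of them at 50% or above in at least one test.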
MtTrpRS: 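Enzyme assay of tryptophanyl-tRNA synthetase; the read-out is not stated. Target: Tryptophan-tRNA ligase, Mycobacterium tuberculosis (UniProt P9WFT3). Tested at 10 µM. Direction is not recorded; retested compounds ran higher, which suggests that high means inhibition. About 65,000 compounds were tested under these conditions; 0.098% (about 64) showed 50% or more at least once.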
Pks13 thioesterase: 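Enzyme assay of the thioesterase domain of polyketide synthase 13; the read-out is not stated. Target: Polyketide synthase Pks13, Mycobacterium tuberculosis (UniProt I6X8D2). Concentration: 30 µM. Higher reads as stronger inhibition (inferred from which compounds were picked for retests). Size under these conditions: about 67,000 compounds, about 300 of them at 50% or above in at least one test.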

For O=C(O)C(F)(F)F.[H][C@]12CCN(C(=O)c3ccncc3F)[C@@]1([H])CCC(COCC1CC1)O2 (stereo partly drawn) the result was Toxoplasma: 7.204%. With CCc1noc(C)c1C(=O)NCc1cc[nH]n1 the screen gave CoaBC: -4.263%; PfKRS1: 9.585%; Toxoplasma: 3.495%; MtTrpRS: 1.861%; Pks13 thioesterase: -24.26%. Cc1ccc([C@@H]2CN(S(=O)(=O)N(C)C)C[C@H]2N(C)C)cc1 gave CoaBC: 1.762%; PfKRS1: 3.635%; Toxoplasma: -1.542%; MtTrpRS: 1.341%; Pks13 thioesterase: -16.77%. O=C(Nc1cc(C(F)(F)F)ccc1Cl)c1ccc(N2CCCC2)nn1 gave CoaBC: -5.042%; PfKRS1: -6.963%; Toxoplasma: 3.662%; MtTrpRS: 15.44%; Pks13 thioesterase: -5.842%.

CCc1nc(CC2CN(c3ncnc4nc(C)cc(C)c34)CCO2)no1 (stereo not drawn) gave CoaBC: 3.065%; PfKRS1: 3.977%; Toxoplasma: -44.2%; MtTrpRS: -3.708%; Pks13 thioesterase: -27.46%. CN1CCCC2(CCN(S(=O)(=O)c3ccc(-c4cnco4)s3)C2)C1=O (stereo not drawn) read CoaBC: 4.187%; PfKRS1: 0.3641%; Toxoplasma: 4.331%; MtTrpRS: 1.342%; Pks13 thioesterase: -7.474%. For CN1CCN(C(=O)C2SCCc3sccc32)CC1 (stereo not drawn) the result was CoaBC: -5.159%; PfKRS1: 9.041%; Toxoplasma: 1.018%; MtTrpRS: -1.906%; Pks13 thioesterase: 5.647%. Result for CC(C)C1CN(C(=O)Nc2cnn(CC(F)F)c2)CCO1 (stereo not drawn) was CoaBC: -3.212%; PfKRS1: 4%; Toxoplasma: -27.69%; MtTrpRS: -5.909%; Pks13 thioesterase: -29.94%.

With CCN(C)C1COC2(CCN(C(=O)c3ccc(Cl)cc3)CC2)C1 (stereo not drawn) the screen gave CoaBC: 2.29%; PfKRS1: 2.845%; MtTrpRS: -2.829%; Pks13 thioesterase: -13.37%. For [H][C@@]12CCN(C(C)=O)C[C@@]1([H])[C@H](C(=O)N1CCCCO1)CCO2 the result was Toxoplasma: -5.38%. Result for Cc1cccc(CN2CCCC3(CCN(c4cccnc4)C3=O)C2)n1 (stereo not drawn) was CoaBC: 6.515%; PfKRS1: 4.909%; Toxoplasma: -2.648%; MtTrpRS: -0.4882%; Pks13 thioesterase: -30.67%. Result for CC(Cn1cncn1)Nc1ccc(-c2nccn2C)nn1 (stereo not drawn) was CoaBC: 6.098%; PfKRS1: 3.265%; Toxoplasma: 0.3245%; MtTrpRS: 1.019%; Pks13 thioesterase: -23.75%.

CN(C(=O)COC1CCCCC1)C1CCN(CC2CCOC2)CC1 (stereo not drawn) read CoaBC: -5.295%; PfKRS1: 4.899%; Toxoplasma: -1.586%; MtTrpRS: -2.081%; Pks13 thioesterase: -5.484%. CC(C)c1csc(C2CCCN(C(=O)c3ccc(=O)n(C)c3)C2)n1 (stereo not drawn) read CoaBC: 0.3659%; PfKRS1: 1.835%; Toxoplasma: 5.12%; MtTrpRS: -2.119%; Pks13 thioesterase: -3.628%. Result for Cc1nn(C)c2nc(N3CCN(Cc4nccn4C)CC3)sc12 was CoaBC: 0.4938%; PfKRS1: 2.049%; Toxoplasma: -9.893%; MtTrpRS: -8.144%; Pks13 thioesterase: -15.07%. For CC(C)c1noc(CNc2cccc(-c3nnnn3C)c2)n1 the result was CoaBC: 1.923%; PfKRS1: 6.604%; Toxoplasma: -3.687%; MtTrpRS: -4.566%; Pks13 thioesterase: 3.69%.

CCCn1ncc(-c2ccnc(NC3CCCc4ccccc43)n2)c1C (stereo not drawn) gave CoaBC: 7.862%; PfKRS1: -2.778%; Toxoplasma: 4.434%; MtTrpRS: 5.385%; Pks13 thioesterase: -6.952%. Result for Cn1cnnc1CNC(=O)Nc1cc(C(F)(F)F)c[nH]c1=O was CoaBC: 0.266%; PfKRS1: -1.225%; Toxoplasma: 9.174%; MtTrpRS: 0.9434%; Pks13 thioesterase: -4.298%. With CCN(CC)c1nc2sc(C(=O)NCC(=O)OC)cc2s1 the screen gave CoaBC: 4.869%; PfKRS1: -0.4154%; Toxoplasma: 8.371%; MtTrpRS: 0.1564%; Pks13 thioesterase: 41.11%. Result for N#Cc1ccc(CN2C[C@@H]3OCC(=O)N(CC(N)=O)[C@@H]3C2)cc1 was CoaBC: 5.697%; PfKRS1: 8.842%; MtTrpRS: -0.5339%.

For Cc1ccc2cc(C(=O)N3CCS(=O)(=O)CC3)[nH]c2c1 the result was CoaBC: -0.7444%; PfKRS1: 0.2916%; Toxoplasma: -11.48%; MtTrpRS: 2.094%; Pks13 thioesterase: -9.458%. N#Cc1ccc(NCc2cc3n(n2)CCCN(C(=O)C2CCC2)C3)nc1 gave CoaBC: 12.44%; PfKRS1: 1.159%; Toxoplasma: -15.82%; MtTrpRS: 7.833%; Pks13 thioesterase: -6.221%. For O=C(O)C(F)(F)F.O=C(O)C(F)(F)F.c1cnc(N2CCCC3(CN(CC4CCOCC4)CCO3)C2)cn1 (stereo not drawn) the result was Toxoplasma: 9.859%. With [H][C@@]12COC[C@]1(COc1ccc(C#N)cn1)CN(Cc1ccoc1)C2 the screen gave Toxoplasma: -41.05%.

For CC(C)COC(C)C(=O)NCc1ccc(OC(C)C)nc1 (stereo not drawn) the result was CoaBC: -0.5128%; PfKRS1: 8.96%; Toxoplasma: 1.359%; MtTrpRS: -3.518%; Pks13 thioesterase: -10.62%. O=C(CN1CCCC1c1cccs1)N1CCc2sccc2C1 (stereo not drawn) read CoaBC: -4.075%; PfKRS1: 1.503%; Toxoplasma: 30.4%; MtTrpRS: -1.412%; Pks13 thioesterase: -6.131%. Result for CCC(C)CN1CCC(n2cc(C3CCCC3)nn2)CC1 (stereo not drawn) was CoaBC: -5.398%; PfKRS1: 0.9788%; Toxoplasma: 6.233%; MtTrpRS: 2.344%; Pks13 thioesterase: -35.76%. For O=C(c1cccnc1N1CCN(Cc2ccoc2)CC1)N1CCCCC1 the result was CoaBC: -3.981%; PfKRS1: -3.003%; Toxoplasma: -22.87%; MtTrpRS: 0.5073%; Pks13 thioesterase: -2.459%.

For CC(C)N(C)Cc1ccccc1CNc1ccc2nncn2n1 the result was CoaBC: -0.7335%; PfKRS1: 0.2542%; Toxoplasma: -15.02%; MtTrpRS: -2.897%; Pks13 thioesterase: -1.896%.

For reference, 2 entries once more:

SMILES,CoaBC,PfKRS1,Toxoplasma,MtTrpRS,Pks13 thioesterase
CN1CCN(C(=O)C2SCCc3sccc32)CC1 (stereo not drawn),-5.159,9.041,1.018,-1.906,5.647
CCC(C)CN1CCC(n2cc(C3CCCC3)nn2)CC1 (stereo not drawn),-5.398,0.9788,6.233,2.344,-35.76